No constants are given. Whether binding was seen depends on the method and setting. Some binding calls cover weakened binding; strength is not graded here.

These results are taken from patent JP2005124505A.

Assay [1] concerns the target T1, 22-1-1抗原 (22-1-1 antigen) on SiSo cells (UniProt O00559).
T1 sequence (looked up): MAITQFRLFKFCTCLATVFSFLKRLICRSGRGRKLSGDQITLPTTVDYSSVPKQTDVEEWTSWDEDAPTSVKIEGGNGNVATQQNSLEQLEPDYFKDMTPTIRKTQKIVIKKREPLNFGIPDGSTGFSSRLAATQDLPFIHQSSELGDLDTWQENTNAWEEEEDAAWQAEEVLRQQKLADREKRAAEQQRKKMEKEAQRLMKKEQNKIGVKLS
As to the kind of experiment: flow cytometry on SiSo cells.

Assay [2] has as its target T1, 22-1-1抗原 (22-1-1 antigen) on SiSo cells. The experiment in a line: flow cytometry on SiSo cells, PE anti-human IgG (legend of Fig. 9).
Assay [3] has the same target. The experiment in a line: flow cytometry on SiSo cells, PE anti-mouse IgM (legend of Fig. 8).

B1: 22-1-1キメラ抗体 (chimeric 22-1-1 antibody, human IgG) (antibody, V domains shown)
VH: QVQLQQSGAELVRPGTSVKISCKASGYTFTNYWLGWVKQRPGHGLEWIGDIYPGGAYPNYNERFKGKATLTADTSSSTAYMQLSSLTSEDSAVYFCARYYDGYLGYWGQGTLVTVSA
VL: DIQMTQSPASLSASVGETVTITCRASENIYSYLAWYQQKQGESPQLLVYNAKTLAEGVPSRFSGSGSGTQFSLKINSLQPEDFGSYYCQHHYGIPWTFGGGTKLEIK
Consider B1, for which the binding entry in assay [1] and in assay [2] was “binds” each time.

B2: 22-1-1抗体 (22-1-1モノクローナル抗体, mouse IgM, hybridoma FERM BP-7002) (antibody, V domains shown)
VH: B1 VH
VL: B1 VL
B2: the binding entry in assay [3] is “binds”.
